Measurements reported in PubChem BioAssay AID1508588 (Peter MacCallum Cancer Centre, 2020).

- Purpose: 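Genome-wide search for knock-downs that heighten vemurafenib action in melanoma cells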 (primary screen)
- Cells: human WM266.4 melanoma cells (BRAF V600 mutant)
- Knock-down reagent: siRNA pool against human genes, 40 nM
- Timing: 96 h from transfection to read-out
- Challenge: vemurafenib 300 nM (about IC25), added 48 h after transfection, for 48 h; comparison arm got DMSO vehicle only
- Detection: 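Cell gain (DAPI nuclei at end minus before drug, mean of two replicates) and medium lactate by absorbance per cell, both as ratio to non-targeting siRNA, also grouped into fold-change classes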
- Direction: cell gain with vemurafenib: higher = more cell gain than with non-targeting siRNA; lactate per cell with vemurafenib: higher = more lactate made per cell
- Call rule: 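a knock-down counts as enhancing when its fold-change classes with vehicle and with vemurafenib, taken together, show a stronger drug effect on cell gain or lactate per cell; exact class pairs not stated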
- Calls: active = enhances vemurafenib effect; inactive = no enhancement seen
In all, the deposit lists about 18,000 reagents; this is an unselected part. 790 of them (4.4%) count as active. 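Calls rest on a combination of fold-change classes in drug and vehicle arms, not all shown here.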

SENP3 gave cell gain with vemurafenib 0.62; lactate per cell with vemurafenib 0.55; inactive.
Knock-down of ZNF593 resulted in: cell gain with vemurafenib 0.62; lactate per cell with vemurafenib 0.8; inactive.
For CRABP2, the entry reads cell gain with vemurafenib 0.78; lactate per cell with vemurafenib 0.78; inactive.
Knock-down of MTERF1 resulted in: cell gain with vemurafenib 0.71; lactate per cell with vemurafenib 1.28; inactive.
Knock-down of SETD5 resulted in: cell gain with vemurafenib 0.81; lactate per cell with vemurafenib 0.95; inactive.
With knock-down of ZNF490, the screen gave cell gain with vemurafenib 0.6; lactate per cell with vemurafenib 0.71; inactive.
TMIGD1 gave cell gain with vemurafenib 0.29; lactate per cell with vemurafenib 2.46; inactive.
For PHKG2, the entry reads cell gain with vemurafenib 0.68; lactate per cell with vemurafenib 0.6; inactive.
Knock-down of H1-6 gave: cell gain with vemurafenib 0.95; lactate per cell with vemurafenib 0.57; inactive.
CACNG6 showed cell gain with vemurafenib 0.9; lactate per cell with vemurafenib 0.6; inactive.
WFIKKN1 gave cell gain with vemurafenib 0.5; lactate per cell with vemurafenib 0.58; inactive.
After knock-down of BAIAP2L2, the screen gave cell gain with vemurafenib 0.67; lactate per cell with vemurafenib 1.56; inactive.
Knock-down of DLL3 resulted in: cell gain with vemurafenib 0.23; lactate per cell with vemurafenib 0.44; active.
After knock-down of ISCU the results were cell gain with vemurafenib -0.1; lactate per cell with vemurafenib 4.44; inactive.
With knock-down of GSR, the screen gave cell gain with vemurafenib 0.45; lactate per cell with vemurafenib 0.68; active.
Silencing of PRNT came out at: cell gain with vemurafenib 0.12; lactate per cell with vemurafenib 1.77; inactive.
With knock-down of TXNRD1, the screen gave cell gain with vemurafenib 0.43; lactate per cell with vemurafenib 0.73; inactive.
After knock-down of DCUN1D4 the results were cell gain with vemurafenib 0.72; lactate per cell with vemurafenib 1.03; inactive.
Depletion of LIMCH1 resulted in: cell gain with vemurafenib 1.2; lactate per cell with vemurafenib 1.02; inactive.
Silencing of DMGDH came out at: cell gain with vemurafenib 0.69; lactate per cell with vemurafenib 0.68; inactive.
Depletion of DNAJB6 came out at: cell gain with vemurafenib 0.36; lactate per cell with vemurafenib 0.75; inactive.
Against TUBB8 the deposit lists cell gain with vemurafenib 0.52; lactate per cell with vemurafenib 1.34; inactive.
Depletion of SLIT1 gave: cell gain with vemurafenib 0.62; lactate per cell with vemurafenib 1.21; inactive.
For LARS1, the entry reads cell gain with vemurafenib 0.53; lactate per cell with vemurafenib 0.91; inactive.
For OR1L6, the entry reads cell gain with vemurafenib 0.28; lactate per cell with vemurafenib 0.32; inactive.
FAM222A showed cell gain with vemurafenib 0.67; lactate per cell with vemurafenib 0.5; inactive.
SUMO4 scored cell gain with vemurafenib 0.81; lactate per cell with vemurafenib 0.28; inactive.
Knock-down of CSAG1 gave: cell gain with vemurafenib 0.33; lactate per cell with vemurafenib 3.23; inactive.
For HIRIP3 the deposit lists cell gain with vemurafenib -0.05; lactate per cell with vemurafenib 1.64; inactive.
Silencing of KRT4 came out at: cell gain with vemurafenib 0.42; lactate per cell with vemurafenib 0.81; inactive.
Knock-down of DHRS11 gave: cell gain with vemurafenib 0.03; lactate per cell with vemurafenib 1.13; active.
After knock-down of MIPEP the results were cell gain with vemurafenib 0.96; lactate per cell with vemurafenib 0.68; inactive.
Against CNTFR, the entry reads cell gain with vemurafenib 0.85; lactate per cell with vemurafenib 0.74; inactive.
After knock-down of APOL3, the screen gave cell gain with vemurafenib 0.95; lactate per cell with vemurafenib 1.78; inactive.
Against LRRC37A2, the entry reads cell gain with vemurafenib 0.96; lactate per cell with vemurafenib 1.23; inactive.
CDKL5 scored cell gain with vemurafenib 0.43; lactate per cell with vemurafenib 0.6; inactive.
After knock-down of USP49 the results were cell gain with vemurafenib 0.29; lactate per cell with vemurafenib 2.37; inactive.
Against GJC3 the deposit lists cell gain with vemurafenib 0.05; lactate per cell with vemurafenib 1.87; inactive.
Against MBNL3, the entry reads cell gain with vemurafenib 0.2; lactate per cell with vemurafenib 1.45; inactive.
With knock-down of GNB4, the record shows cell gain with vemurafenib 0.39; lactate per cell with vemurafenib 1.36; inactive.

Laid out differently: results already given
LIMCH1
- cell gain with vemurafenib: 1.2
- lactate per cell with vemurafenib: 1.02
- Outcome: inactive

DMGDH
- cell gain with vemurafenib: 0.69
- lactate per cell with vemurafenib: 0.68
- Outcome: inactive

DNAJB6
- cell gain with vemurafenib: 0.36
- lactate per cell with vemurafenib: 0.75
- Outcome: inactive

TUBB8
- cell gain with vemurafenib: 0.52
- lactate per cell with vemurafenib: 1.34
- Outcome: inactive

SLIT1
- cell gain with vemurafenib: 0.62
- lactate per cell with vemurafenib: 1.21
- Outcome: inactive
